Reference: publication PMC7718258
Construct, isoform or probe ends are uncertain for at least one entry. Negatives hold for the conditions tested.

Tested on: pfPcc1 (Pyrococcus furiosus)
Test: fluorescence polarization
Conditions: 20 mM HEPES pH 7.5, 100 mM NaCl, 2 mM DTT; filter binding 50 nM 32P-tRNA, 1 h, room temperature; FP 50 nM 647-CCA; recombinant protein; protein details: GST removed by TEV; label: 5' Alexa-647

Sequence: CCGCCA [647-CCA]
- binding result: no binding
